Here are results for 7 substances from PMC5100903 (PLoS ONE, 2016).

HELM strings list residues between dots; [ac] is acetyl, [am] amide, other brackets name non-standard units. Positions of bridges follow the written chain, without caps; N, C: chain ends.

This series is described as follows: general procedure: Fmoc solid-phase peptide synthesis; pre-loaded Fmoc-Cys(Trt)-NovaSyn TGT resin; HBTU/HOBt, DIPEA. As to conditions: cyclisation step.
Setting [1] is: isolated yield from linear precursor.

Substance “PEPTIDE1{G.R.C.T.K.S.K.P.P.H.C.F.P.D}$PEPTIDE1,PEPTIDE1,1:R1-14:R2|PEPTIDE1,PEPTIDE1,3:R3-11:R3$$$V2.0” came in with a cyclisation yield under setting [1] of 16%. On the same count and under the same terms, as for “PEPTIDE1{N.R.C.T.K.S.I.P.P.H.C.F.P.D}$PEPTIDE1,PEPTIDE1,1:R1-14:R2|PEPTIDE1,PEPTIDE1,3:R3-11:R3$$$V2.0”, the figure is 25%. Still for that read-out and setting: as for cyclo(CTKSIPPHCWPDGR) (disulfide 1-9), the figure is 25%.

Take cyclo(CTRSIPPHCWPDGR) (disulfide 1-9): the cyclisation yield (from linear peptide) came to 24%. cyclo(CFPDGRCTRSIPPH) (disulfide 1-7): the cyclisation yield under setting [1] stood at 24%.

As to “PEPTIDE1{G.R.C.T.K.S.I.P.P.H.C.Y.P.D}$PEPTIDE1,PEPTIDE1,1:R1-14:R2|PEPTIDE1,PEPTIDE1,3:R3-11:R3$$$V2.0”, the cyclisation yield under setting [1] stood at 19%. With cyclo(CFPDGRCTKSIPPH) (disulfide 1-7), the cyclisation yield under setting [1] was found to be 19%.
